Species: Homo sapiens

Question: For `Oc1cccc(O)c1` [RESORCINOL], which “log Kp” value is on record?
Answer: -7.18 cm/s

Reference: ChEMBL document CHEMBL1138041, “Parallel artificial membrane permeability assay: a new membrane for the fast prediction of passive human skin permeability” (J Med Chem, 2006)
